From PubChem BioAssay AID493014 (National Center for Advancing Translational Sciences (NCATS), 2011) come the findings set out here.

Usually AC50 stands for the concentration giving half of the maximal activity seen.

Molecules are shown by their SMILES. This is one part of the list. Further columns of the screen follow, without active or inactive calls. Compounds called inactive in the main read-out are mostly missing here. Potencies come from curve fits of mixed quality, noted in brackets.

The nature of the test: qHTS Assay to Find Inhibitors of Chronic Active B-Cell Receptor Signaling. The following applies: ABC-DLBCL IkBa-CBG/CBR reporter, luminescence ratio (green luciferase fused to IkBa over red control in TMD8 lymphoma cells), 4 h. Summed up: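 TMD8 human ABC-DLBCL cells with doxycycline-inducible IκBα–green luciferase fusion and unfused red luciferase, in 0.5% FBS medium; compounds up to 46 uM, 4 h at 37C. Green/red luminescence ratio, filter-overlap corrected, fitted to concentration-response curves.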
(Quantitative high-throughput screening tests each substance at several concentrations.)

[1] abbreviates: measured here: CBR red luminescence, cell number.
[2] abbreviates: measured here: IkBa-CBG green luminescence.

With `C=CCn1c(CNC(=O)c2ccco2)nnc1SCC(=O)Nc1cccc(Br)c1`, the AC50 under setting [1] was 29.1 µM [falling, single point].

Regarding `CCN(CC(=O)Nc1c(F)cccc1F)C(=O)CCC(=O)c1ccc(C)cc1`, under setting [1], the AC50 was 32.6 µM [rising, partial curve, poor fit]. For `C=C(C)C(=O)Nc1cccc(C2=NOC3(C2)C[C@H](C(N)=O)N(C(=O)CC)C3)c1` (stereo partly specified), the AC50 under setting [1] was 35.5 µM [rising, single point]. On the same count and under the same terms, the same measure for `Cc1ccc(-n2nc3c(c2NC(=O)c2c(-c4ccccc4Cl)noc2C)CSC3)cc1`: 2.24 µM [rising, partial curve, poor fit]; for `Nc1nonc1C(=O)NCCNCc1ccccc1OCc1ccccc1F`: 11.2 µM [falling, partial curve, poor fit]. Consider `Clc1ccccc1OCCCOc1cccc2cccnc12`, for which the AC50 under setting [1] is 3.16 µM [rising, single point]. In the case of `COC(=O)CSc1nc2c(c(C3CC=CCC3)c1C#N)CCC2` (stereo unspecified), the AC50 under setting [1] is 16.4 µM [rising, single point]. Consider `COc1ccc(-c2nc(CN(C)C(C)c3ccon3)c(C)o2)c(C)c1C` (stereo unspecified), for which, under setting [1], the AC50 is 2 µM [rising, partial curve].

Consider `COc1ccc(C(=O)N/C(=C\c2ccc3c(c2)OCO3)C(=O)NCCc2nc3ccccc3[nH]2)cc1`, for which the AC50 under setting [1] is 29.1 µM [falling, single point]. On the same count and under the same terms, as for `COC(=O)c1ccccc1NC(=S)NC(NC(=O)COc1ccccc1)C(Cl)(Cl)Cl` (stereo unspecified), the figure is 35.5 µM [falling, single point]; as for `CN(C)CCCNC(CC(=O)Nc1cccc([N+](=O)[O-])c1)C(=O)O` (stereo unspecified), 0.58 µM [falling, full curve]. For `CC(OC(=O)/C=C/c1ccccc1)C(=O)Nc1cccc(C#N)c1` (stereo unspecified), the AC50 under setting [2] is 29.1 µM [falling, single point]. `Cc1[nH]c2ccc(-c3nnc(SCC(=O)c4ccc(F)cc4)o3)cc2c1C`: under setting [1], the AC50 was 22.4 µM [rising, single point]. The same measure, in the same setting: the same measure for `CCCc1c(C(=O)Nc2ccc(F)cc2F)cnn1-c1ccccc1`: 8.91 µM [falling, partial curve]; for `Cc1ccc(Sc2nc3ccc(C)cn3c(=O)c2/C=N/O)cc1`: 8.91 µM [falling, partial curve]. As to `Cc1ccc(C)c(OCCC(=O)OCC(=O)N2CCN(S(=O)(=O)c3ccc(Cl)cc3)CC2)c1`, the concentration at half-maximal activity (AC50) is 18.4 µM [falling, single point] under setting [1] and 13 µM [rising, partial curve, poor fit] under setting [2].

Consider `CCCOc1cccc(C(=O)Nc2ccc(CN3CCOCC3)cc2)c1`, for which the AC50 under setting [1] is 12.6 µM [falling, single point]. Consider `CC(C)(C)c1ccc(C(=O)Cn2cnnc2C#N)cc1`, for which the AC50 under setting [1] was 3.16 µM [falling, full curve].

Turning to `O=C1c2cccnc2C(Nc2ccc(Cl)cc2)N1Cc1cccs1` (stereo unspecified), under setting [1], the AC50 is 10 µM [falling, partial curve, poor fit]. As to `O=C(NCCC(=O)N1CCN(c2ncccn2)CC1)c1ccccc1`, the AC50 under setting [1] is 16.4 µM [falling, single point] and the AC50 under setting [2] is 25.9 µM [rising, partial curve, poor fit].

As to `COc1cc(/C=N/Nc2nc(N3CCCC3)nc(N3CCCC3)n2)ccc1O`, the AC50 under setting [1] was 29.1 µM [falling, single point]. The same measure, in the same setting: as for `COCc1ccc(CN2CCC(C(=O)Nc3cccc(-c4cccc(Cl)c4)c3)CC2)o1`, the figure is 11.2 µM [falling, partial curve]; as for `COc1ccc(CCNc2ncnc3cc(OC)c(OC)cc23)cc1OC`, 10 µM [falling, single point]; as for `COc1ccccc1C(=O)C1CCCN(Cc2cn[nH]c2C2CCCCC2)C1` (stereo unspecified), 20 µM [falling, single point]. The same measure, in the same setting: the same measure for `COc1cccc(NC(=O)CN(C)C(=O)CC(C)c2ccccc2)c1` (stereo unspecified): 2.51 µM [falling, partial curve, poor fit]; for `O=C(c1ccco1)N1CCN(C(=O)c2cnn3c(C(F)(F)F)cc(-c4cccs4)nc23)CC1`: 2.06 µM [rising, full curve, poor fit]. Regarding `COc1ccc(N/C(=N\c2nc(C)cc(C)n2)NC(=O)C(C)C)cc1OC`, under setting [1], the AC50 is 5.01 µM [rising, full curve, poor fit]. With `O=C(COC(=O)c1cc(Cl)ccc1Cl)NC1CCCC1`, the AC50 under setting [1] is 3.55 µM [rising, full curve, poor fit]. With `CCOC(=O)c1cnc(-n2nc(C)cc2C)nc1Oc1ccccc1F`, the AC50 under setting [1] is 1.78 µM [rising, full curve, poor fit].

With `Cc1ccc(NC(=O)COc2ccc3oc4c(c3c2)CCCC4)nc1`, under setting [1], the AC50 was 32.6 µM [rising, single point].

As to `CCOC(=O)CSC1=C(C#N)C(c2ccc(C)s2)CC(=O)N1` (stereo unspecified), the AC50 reads like this: under setting [1], 6.31 µM [rising, partial curve, poor fit]; under setting [2], 15.8 µM [falling, partial curve].

For the compound `CCOC(=O)C1CCCN(C(=O)c2cc3c(=O)n(C)c4ccccc4c3n2C)C1` (stereo unspecified), under setting [1], the AC50 is 5.17 µM [falling, single point]. Turning to `O=C1CC(N2CCOCC2)C(=O)N1CCc1ccccc1` (stereo unspecified), under setting [1], the AC50 is 31.6 µM [rising, single point]. Take `COc1cc(S(=O)(=O)NCC2OCCc3ccccc32)ccc1-n1cnnn1` (stereo unspecified): the AC50 under setting [1] was 29.1 µM [falling, single point]. On the same count and under the same terms, as for `O=C(Nc1ccc(N2CCOCC2)nc1N1CCOCC1)c1cccc(C(F)(F)F)c1`, the figure is 14.1 µM [falling, partial curve, poor fit]; as for `Cc1ccc(OCc2ccc(C(=O)N3CCCC3)o2)cc1C`, 25.1 µM [falling, single point]; as for `CCN1CCN(c2ccc(S(=O)(=O)N3CCCCC3)cc2NC(=O)Cc2ccc(Cl)c(Cl)c2)CC1`, 29.1 µM [falling, single point]. For the compound `NS(=O)(=O)c1ccc(CCNC(=O)C(=O)C2C(=O)Nc3ccccc32)cc1` (stereo unspecified), under setting [1], the AC50 is 35.5 µM [falling, single point].

Take `CCc1ccc(/C=C2\SC(=S)N(CCCC(=O)Nc3ccccc3C(=O)O)C2=O)cc1`: the AC50 under setting [1] was 7.08 µM [falling, partial curve, poor fit]. The same measure, in the same setting: the same measure for `COCCn1ccc2c(OCC(=O)Nc3ccccc3OC)cccc2c1=O`: 1.64 µM [falling, partial curve]. Still for that read-out and setting: the same measure for `COc1cccc(-c2nnn(CC(C)=O)n2)c1`: 23.1 µM [rising, single point]. On the same count and under the same terms, the same measure for `COc1ccccc1-c1nnc(C2CCN(S(=O)(=O)c3ccccc3[N+](=O)[O-])CC2)o1`: 0.355 µM [falling, full curve]. Turning to `Cc1nn(Cc2ccc(Cl)cc2)c(C)c1NC(=O)c1ccc([N+](=O)[O-])cc1`, the AC50 under setting [1] was 32.6 µM [falling, partial curve, poor fit].

Consider `O=C1CS/C(=C/C(=O)c2cccc(Cl)c2)N1`, for which the AC50 under setting [1] was 35.5 µM [falling, single point].

In the case of `O=C(Cc1csc(-c2ccc(F)cc2)n1)Nc1cccc(S(=O)(=O)NC2=NCCC2)c1`, the AC50 under setting [1] was 10.3 µM [falling, partial curve].

For the compound `CC(=O)Oc1ccc(-c2cccc(C(=O)Oc3ccccc3)c2)cc1`, the AC50 under setting [1] is 0.00411 µM [rising, full curve, poor fit]. On to `CCOC(=O)c1c(NC(=O)CN2C(=O)NC3(CCCC3)C2=O)sc(C)c1CC`, for which the AC50 under setting [1] is 32.6 µM [falling, single point]. Turning to `N#Cc1ccc(-c2cccs2)nc1SCc1cccnc1`, the concentration at half-maximal activity (AC50) was 12.6 µM [rising, partial curve] under setting [1] and 11.2 µM [falling, partial curve] under setting [2].

`CCS(=O)(=O)n1nc(-c2ccc(OC)cc2)nc1N`: the AC50 under setting [1] is 3.16 µM [rising, full curve]. Same read-out and setting: as for `CC(=O)N/C(=C/c1ccccc1)c1ccccc1`, the figure is 16.4 µM [rising, partial curve, poor fit]. As for `Cc1oc(-c2ccc(Cl)cc2)nc1CN1CCC(C(=O)NCCCN2CCCC(C)C2)CC1` (stereo unspecified), under setting [1], the AC50 is 14.1 µM [falling, partial curve, poor fit]. On to `CCOc1cc(/C=N/NC(=O)c2nn(C)cc2Br)ccc1OCc1ccccc1`, for which the AC50 under setting [1] was 5.17 µM [falling, partial curve, poor fit]. With `COc1ccc(C(C(=O)NCc2ccccc2)N(C(=O)c2snc(C(N)=O)c2N)C2CCCC2)cc1O` (stereo unspecified), the AC50 under setting [2] was 11.2 µM [falling, partial curve, poor fit]. `O=C(O)COc1ccc(/C=N/NC(=O)C2CCCN2S(=O)(=O)c2ccc(Cl)cc2)cc1` (stereo unspecified): the AC50 under setting [1] is 29.1 µM [falling, single point]. The same measure, in the same setting: as for `CCn1cc(C(=O)NCCc2ccccc2)c(=O)c2cc(S(=O)(=O)N(C)C)ccc21`, the figure is 0.562 µM [rising, full curve, poor fit]; as for `CCOc1ccc(NC(=O)CC2C(=O)N(c3ccc(OC)cc3)C(=O)N2CCc2ccc(OC)c(OC)c2)cc1` (stereo unspecified), 3.98 µM [rising, partial curve, poor fit]. Turning to `COc1ccc(NC(=O)c2ccc3c(c2)n(C)c(=O)n3C)cc1`, the AC50 by setting is: under setting [1], 23.1 µM [rising, single point]; under setting [2], 18.4 µM [falling, single point].

On to `CC(=O)OCCCN1C(=O)c2cccc3cc(Br)cc(c23)C1=O`, for which, under setting [1], the AC50 was 35.5 µM [rising, partial curve, poor fit]. `CCOC(=O)CN(C(=O)CSc1nnc2c(n1)[nH]c1ccc(F)cc12)c1ccccc1`: the AC50 under setting [1] is 3.16 µM [falling, full curve, poor fit]. As for `COC(=O)CSc1nnc2c3c4c(sc3nc(-n3nc(C)cc3C)n12)COC(C)(C)C4`, the AC50 under setting [1] is 3.55 µM [rising, single point].

In the case of `COC(=O)c1ccc(NC(=O)C(=O)c2c[nH]c3ccccc23)cc1`, the AC50 under setting [1] was 0.1 µM [falling, full curve, poor fit].
